Screening data, single-dose tests

Protein sequences, listed by entry. Tags and fused reporters are not part of them. Residues count along the entry.
UniProt Q4DA54, 1-478: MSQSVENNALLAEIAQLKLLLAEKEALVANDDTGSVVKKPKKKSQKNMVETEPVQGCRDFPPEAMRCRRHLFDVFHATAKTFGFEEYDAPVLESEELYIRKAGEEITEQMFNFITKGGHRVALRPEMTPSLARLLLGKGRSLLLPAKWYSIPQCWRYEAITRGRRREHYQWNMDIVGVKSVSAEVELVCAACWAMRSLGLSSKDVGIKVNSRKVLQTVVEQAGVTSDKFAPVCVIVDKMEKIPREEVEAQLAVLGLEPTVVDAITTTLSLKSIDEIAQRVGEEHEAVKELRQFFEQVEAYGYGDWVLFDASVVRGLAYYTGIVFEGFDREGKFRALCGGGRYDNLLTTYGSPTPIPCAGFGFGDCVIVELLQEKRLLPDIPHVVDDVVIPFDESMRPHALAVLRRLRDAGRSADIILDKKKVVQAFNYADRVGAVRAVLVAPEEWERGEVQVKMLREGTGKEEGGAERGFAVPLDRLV
UniProt P9WNZ1, whole entry: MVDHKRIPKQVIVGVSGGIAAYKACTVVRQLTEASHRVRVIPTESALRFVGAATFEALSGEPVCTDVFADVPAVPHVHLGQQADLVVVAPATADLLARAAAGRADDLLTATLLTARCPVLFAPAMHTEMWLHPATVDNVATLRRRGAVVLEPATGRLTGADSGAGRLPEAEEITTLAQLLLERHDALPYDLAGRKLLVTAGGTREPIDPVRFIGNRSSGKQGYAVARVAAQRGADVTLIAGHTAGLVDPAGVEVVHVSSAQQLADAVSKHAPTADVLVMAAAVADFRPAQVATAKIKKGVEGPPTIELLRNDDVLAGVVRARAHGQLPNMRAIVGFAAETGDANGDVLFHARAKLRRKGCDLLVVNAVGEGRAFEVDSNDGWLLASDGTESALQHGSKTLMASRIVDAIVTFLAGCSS

Measurements from “University of Dundee, Small-Polar-MMV Screening Library” (2021), ChEMBL document CHEMBL3988442.

Toxoplasma: 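Assay of Toxoplasma gondii numbers, read through their beta-galactosidase reporter with a colour substrate. Compounds at 10 µM. Higher reads as fewer parasites (inferred from which compounds were picked for retests). Size under these conditions: about 67,000 compounds, about 260 of them at 50% or above in at least one test.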
TcHisRS: 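Enzyme assay of histidyl-tRNA synthetase; the read-out is not stated. Target: Histidine-tRNA ligase, Trypanosoma cruzi CL Brener (UniProt Q4DA54). Compounds at 30 µM. Higher reads as stronger inhibition (inferred: compounds with an IC50 in retests scored well above the rest). About 69,000 compounds were tested under these conditions; 0.045% (about 31) showed 50% or more at least once.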
CoaBC: 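Coenzyme A biosynthesis protein CoaBC, Mycobacterium tuberculosis (UniProt P9WNZ1). Enzyme assay of CoaBC with a phosphate dye (Biomol Green) read at 650 nm. Compounds at 30 µM. Higher reads as stronger inhibition, judged from the few compounds that gave an IC50. Most strong results did not repeat in a second test. Size under these conditions: about 67,000 compounds, about 40 of them at 50% or above in at least one test.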
Leishmania in macrophages: 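Cell assay of Leishmania donovani living inside macrophages; the read-out is not stated. Compounds at 30 µM. Direction is inferred from retests: higher values go with stronger inhibition. Of about 69,000 compounds tested this way, about 1,000 (1.5%) reached 50% or more in at least one test.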

Results are given as percent effect.
The controls that fix the scale are not given in the record; negative values are as filed.
Compounds were drawn at random from those tested, without regard to their results.
Two or more numbers in one place are separate tests of the same structure; such repeats can differ widely.
A dash means the value is not listed here; it may have been measured.

Compound	Toxoplasma	TcHisRS	CoaBC	Leishmania in macrophages
CC(CNC(=O)c1cccnc1O)Cn1cccn1 (centres unmarked)	-6.095	5.319	-0.4016	14.89
N#Cc1ccc(CN2C(=O)c3ccccc3CS2(=O)=O)c(F)c1	-0.9744	6.14	-0.8092	0
Fc1ccc(CN2CCC3(CC2)CCN(Cc2nccs2)CC3)cc1	-	9.195	-5.943	-
COc1cccc(C(=O)N(C)Cc2ncc(C)c(OC)c2C)c1OC	2.548	-0.8403	-3.672	23.53
O=C(c1ncccn1)N1C[C@@H]2COC[C@]2(COCc2cccnc2)C1	-	6.452	-3.158	-
COc1ccc(-c2noc(CN3CCCC3Cn3cccn3)n2)cc1 (centres unmarked)	0.03595	5.085	0.2611	4.151
CN(C)CCC1CCCCN1Cc1cnc(-c2ccccn2)nc1 (centres unmarked)	-65.3	5.759	-3.909	26.35
O=C(O)C(F)(F)F.[H][C@@]12CN(Cc3ccoc3)C[C@]1([H])C(=O)N(c1cnn(C)c1)C2	2.471	-	-	-24.67
COCCOCC(C)NC(=O)COc1nn(C)c2nc(C)cc(C)c12 (centres unmarked)	9.521	6.154	5.741	6.18
[H][C@]12CCC(=O)N(c3ccccc3)[C@@]1([H])CCN2C(=O)c1cccn1C	-0.126	-	-	-8.392 & -5.443
Cn1cc(C2CCCN2C(=O)CCCOCc2ccccc2)cn1 (centres unmarked)	-	1.504	-2.314	-10.08
CN(CCO)CC1COCCN1C(=O)C1(c2cccs2)CCCC1 (centres unmarked)	-	-46.34	3.137	-
Cn1cc(-c2ccnc(NCC3CCCCO3)n2)cn1 (centres unmarked)	8.056	-3.279	15.47	18.68
CCN1CCC2(CC1)C(=O)Nc1ccc(C(=O)NC)cc12	-	-0.9346	-7.654	-
O=C(N[C@@H]1CN(Cc2ccc(F)cc2)C[C@H]1O)c1cscn1	-1.12	0	-2.913	4.644 & 11.3
Cc1oc(C(=O)O)cc1S(=O)(=O)Nc1cc(F)ccc1F	-7.402	-0.5747	-0.6452	-31.62
CNC(=O)C1CCCN1c1nc(C)c2ccccc2n1 (centres unmarked)	3.964	3.804	2.893	18.72
Cc1cc(C)n(C2CN(Cc3nc4cc(Cl)ccc4n3C)C2)n1	-12.2	8.995	-15.31	6.997
CC1(c2[nH]ncc2C(N)=O)CCN(c2ncccn2)CC1	-4.122	6.513	-3.828	-10.74
CN(C)S(=O)(=O)c1ccc(OCCNCCn2cccn2)cc1	-34.48	6.391	1.828	-16.11
CN(C1CCCN(c2ccccn2)C1)S(C)(=O)=O (centres unmarked)	-5.713	9.091	-1.577	25.41
CC(O)CN1CCN(C(=O)c2ccnc(N(C)C)c2)CC1 (centres unmarked)	-1.77	5.911	-5.769	20.67
CN1CCC(N(Cc2ccccc2)C(=O)c2ccn3cncc3c2)CC1	8.578	6.863	-11.16	-7.439
COc1ccc(CN2CCO[C@H]3CN(C4CCC4)CC[C@H]3C2=O)cc1	-	0.6452	-0.2415	-
O=C1NCCCC12CCN(c1nc3c(c(C(F)(F)F)n1)CCCC3)C2 (centres unmarked)	16.09	4.372	15.89	-100.1
COc1cc(C)c2c(c1C)C[C@@H](C(C)C(=O)O)CC2 (some centres unmarked)	6.46	4.124	-12.98	20.51
O=C(Nc1cnccn1)[C@H]1CC[C@@H]2[C@@H](CCN2Cc2ccccn2)O1	-	11.06	1.131	-
CN(C)C(=O)N1CCN(Cc2nnc(C(C)(C)C)o2)CC1	-5.886	-0.8333	-1.066	6.527
CCCc1noc(CN(C)C(=O)C2COc3ccccc3C2)n1 (centres unmarked)	4.975	6.695	1.818	13.91
COCCC(Cc1cccc(Br)c1)C(=O)O (centres unmarked)	1.318	3.093	20.1 & 72.88	9.06
CCC(=O)Nc1cccc(OCC(=O)N(C)CCCC2CCCO2)c1 (centres unmarked)	17.92	3.478	-14.35	17.96
COCC(=O)N1CCCC1c1ccc(C(=O)NCc2ccccc2Cl)s1 (centres unmarked)	8.046	6.154	-3.904	15.51

Some entries from above, unchanged:

Compound	Toxoplasma	TcHisRS	CoaBC	Leishmania in macrophages
CCN1CCC2(CC1)C(=O)Nc1ccc(C(=O)NC)cc12	-	-0.9346	-7.654	-
O=C(N[C@@H]1CN(Cc2ccc(F)cc2)C[C@H]1O)c1cscn1	-1.12	0	-2.913	4.644 & 11.3
CNC(=O)C1CCCN1c1nc(C)c2ccccc2n1 (centres unmarked)	3.964	3.804	2.893	18.72